Screen size: about 390,000 compounds; about 910 (0.23%) were called active. The shares of active, inactive and inconclusive entries below differ from those in the screen. Calls follow the shape of the dose curve; as a rule, active = well fitted inhibition curve with a large enough effect; inconclusive = small, poorly fitted or top-dose-only effect; inactive = no such curve, though single readings can be large or run the other way. Potencies of inconclusive entries are doubtful fits and often do not repeat.
biological target: Ubiquitin carboxyl-terminal hydrolase 1 (Homo sapiens) (UniProt O94782); assay: Inhibitors of USP1/UAF1: Primary Screen; details: recombinant USP1/UAF1, Ub-Rhodamine cleavage fluorescence; activity change, negative = inhibition: at 57.1 µM (top of the series); also: nearly all actives have a fitted effect of over 60% in size
Method in brief: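 1 nM enzyme complex + cpd, 15 min RT; start with Ub-Rho 150nM final; kinetic fluorescence ex 480/em 540, 6 reads q60 s. Buffer 50mM HEPES pH 7.8, 0.5mM EDTA, 0.1 mg/ml BSA, 1mM TCEP, 0.01% Tween-20.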
% is scaled to controls: 0 for no effect and ±100 for the full control effect; potency is read from the fitted curve at half-maximal effect.

Amino acid sequences for entries named in this document (tags omitted). A change or cut given only in a name is not applied to a line headed by its entry.
UniProt O94782: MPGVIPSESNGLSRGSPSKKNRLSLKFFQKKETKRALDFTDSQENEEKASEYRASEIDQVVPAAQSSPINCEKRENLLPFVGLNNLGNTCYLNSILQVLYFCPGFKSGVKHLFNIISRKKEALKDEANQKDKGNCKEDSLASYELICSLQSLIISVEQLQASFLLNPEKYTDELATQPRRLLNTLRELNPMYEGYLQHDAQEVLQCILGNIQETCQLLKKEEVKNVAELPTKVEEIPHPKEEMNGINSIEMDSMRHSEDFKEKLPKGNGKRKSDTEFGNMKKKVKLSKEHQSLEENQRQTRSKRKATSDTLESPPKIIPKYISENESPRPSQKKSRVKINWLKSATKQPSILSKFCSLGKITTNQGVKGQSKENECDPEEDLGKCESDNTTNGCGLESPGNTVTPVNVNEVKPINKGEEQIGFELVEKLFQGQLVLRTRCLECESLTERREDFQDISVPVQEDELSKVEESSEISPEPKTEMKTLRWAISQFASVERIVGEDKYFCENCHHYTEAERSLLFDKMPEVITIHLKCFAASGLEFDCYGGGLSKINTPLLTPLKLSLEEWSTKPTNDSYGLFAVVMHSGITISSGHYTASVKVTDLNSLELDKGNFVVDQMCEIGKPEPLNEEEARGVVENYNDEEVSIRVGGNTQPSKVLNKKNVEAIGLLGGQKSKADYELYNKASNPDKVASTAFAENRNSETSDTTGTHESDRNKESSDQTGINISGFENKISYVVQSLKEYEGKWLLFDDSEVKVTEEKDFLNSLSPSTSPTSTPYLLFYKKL

Activity change, negative = inhibition, inconclusive:
CN1CCN(NC(=O)CN2C(=O)S/C(=C\c3c(Cl)cccc3Cl)C2=O)CC1 -11.2% [inhibitor]

Activity change, negative = inhibition, inactive:
Cn1c(=O)n(C)c2cc(NS(=O)(=O)c3cccs3)ccc21 -19.4%
Sc1oc(-c2ccccc2)cc1C=Nc1ccccc1 -22.1%
FC(F)(F)c1cccc(Nc2cc(-c3ccccc3)nc3ncnn23)c1 -11.9%
COC(=O)CCC(=O)N(CCN(C(=O)CCC(=O)OC)c1ccccc1)c1ccccc1 -17.4%
Cc1nc(C)c(-c2ccc(SCC(=O)Nc3ccc(Br)cc3)nn2)s1 -20%
COc1cc(CNCc2ccccc2)c(Br)cc1OC1CCCC1 -18.5%
OCCN(Cc1ccccc1)CC(O)COc1ccc2c(c1)OCO2 (configuration not stated) -16.5%
Cc1ccc(CN2CCC(C(=O)Nc3cccc(-c4cccc(F)c4)c3)CC2)o1 -21.5%
CCOC(=O)c1cc(-c2ccccc2)n(-c2cccc(C(=O)Nc3ccc(OC)cc3)c2)c1C -28.1%
CC(C)OC(=O)C(CC(=O)O)N1CCOCC1 (configuration not stated) -17.2%
COc1ccc(C2CCCN2C(=S)Nc2ccccc2C)cc1OC (configuration not stated) -23.1%
CCOc1ccc(OCc2ccc(C(=O)O)o2)cc1 -12.7%
CCNC(=S)N1CCc2cc(OC)c(OC)cc2C1COc1ccc(F)cc1 (configuration not stated) -17.3%
Cc1ccccc1C(=O)NNC(=O)C1CCN(C(=O)Nc2ccccc2)CC1 -7.95%
CC(=O)Nc1nonc1-c1nnc(SCC(=O)N(C)c2ccccc2)n1C 8.85%
CCN1CCN(CCCNC(=O)c2cc3c(=O)n(C)c4ccccc4c3s2)CC1 -5.29%
O=C(COc1ccccc1Cl)NCC1(N2CCOCC2)CCCCC1 -11.3%
Cc1cc(F)ccc1S(=O)(=O)NCC(c1ccco1)S(=O)(=O)c1cccs1 (configuration not stated) -17.7%
C/C(=N\Nc1ccc(C(=O)O)cc1)c1ccc2c(c1)Nc1ccccc1S2 -16.9%
O=C(CSc1c2c(nc3ccc(Cl)cc13)CCCC2)N1CCN(c2cccc(Cl)c2)CC1 7.93%
COc1ccc(N)c2c1C(=O)c1ccccc1C2=O -5.65%
Cc1ccc(NC(=O)CSCC(=O)Nc2cc(C(F)(F)F)ccc2N2CCOCC2)cc1 -21.5%
CC(C)C(=O)N1CCN(c2ccccc2NC(=O)c2ccc(Br)o2)CC1 -10.3%

Potency, inactive:
CC1CCCN(CCCNC(=O)c2ccc3c(c2)N(Cc2ccccc2F)C(=O)c2ccccc2S3(=O)=O)C1 (configuration not stated)

Potency, inconclusive:
O=C1/C(=C/C=C/c2ccco2)SC(=S)N1NS(=O)(=O)c1ccccc1 20 µM [inhibitor, partial curve]
COc1cc(CNC(=O)c2ccc(Cn3nc(C)c(Cl)c3C)o2)cc(OC)c1 316 µM [inhibitor, partial curve, poor fit]
Cc1ccc(-c2noc(C(C)NS(=O)(=O)c3ccc(C)cc3)n2)cc1 (configuration not stated) 50.1 µM [inhibitor, single point]
CC(=O)c1cccc(-n2c(=O)c3c4c(sc3n(CC(=O)c3ccccc3)c2=O)CN(C(C)=O)CC4)c1 15.8 µM [inhibitor, partial curve, poor fit]
COc1cc(CCCN2C(=S)NC[C@@H]2c2ccccc2)cc(OC)c1OC 0.126 µM [inhibitor, full curve, poor fit]
CC1(C)Cc2c(c(N3CCCC3)nc3sc(C(=O)Nc4ccccc4)c(N)c23)CO1 44.7 µM [inhibitor, partial curve, poor fit]
COc1ccc([C@H]2CC(=O)C=C(c3cccc4c3sc3ccccc34)C2)cc1OC 4.47 µM [inhibitor, full curve, poor fit]
COc1cc(N(CCCn2cnc3c(SC)ncnc32)CCCn2cnc3c(SC)ncnc32)cc(OC)c1OC 5.62 µM [inhibitor, full curve, poor fit]
O=C(CC(Sc1ccccc1)c1cccs1)c1ccco1 (configuration not stated) 20 µM [inhibitor, partial curve, poor fit]
CC(C)(C)c1ccc(NC(=O)C2CCCN(c3cnccn3)C2)cc1 (configuration not stated) 35.5 µM [inhibitor, single point]
COc1cc(NC(=O)Cn2cnc3c(OCc4ccccc4)ncnc32)cc(OC)c1OC 50.1 µM [inhibitor, partial curve, poor fit]
Oc1c(CN2CCCCC2)cc(Br)c2cccnc12 39.8 µM [inhibitor, partial curve]
CCOC(=O)N1CCN(C(=O)C(C)NC(=O)c2ccco2)CC1 (configuration not stated) 28.2 µM [inhibitor, single point]
O=C(COc1ccc(Cl)cc1Cl)Nc1nc2n(n1)C(c1ccccc1)CC(=O)N2 (configuration not stated) 5.01 µM [inhibitor, full curve]
COc1cc(C(=O)Oc2c(Sc3ccccc3)c(C)nn2-c2ccccc2)cc(OC)c1OC 35.5 µM [inhibitor, partial curve, poor fit]
N#Cc1ccccc1NC(=O)C1CCCO1 (configuration not stated) 5.01 µM [inhibitor, partial curve]
Cc1ccc(C(=O)N2c3ccccc3OCC2C)cc1 (configuration not stated) 44.7 µM [inhibitor, partial curve, poor fit]
O=Cc1cn(CC(=O)Nc2ccc(F)cc2)c2ccccc12 0.631 µM [inhibitor, full curve, poor fit]
CC(C)(NS(=O)(=O)OCC(Cl)(Cl)Cl)c1ccccc1 44.7 µM [inhibitor, partial curve, poor fit]
CCCNC(=O)CN(c1ccc(F)cc1)S(=O)(=O)c1ccc2c(c1)OCCO2 0.447 µM [inhibitor, full curve, poor fit]
CCOc1ccccc1N(CC)C(=O)c1cc2c(=O)[nH]c3ccc(C)cc3c2s1 44.7 µM [inhibitor, partial curve, poor fit]
CCCCC(CC)CNC(=O)CN1C(=O)CSc2ccc(S(=O)(=O)N3CCOCC3)cc21 (configuration not stated) 7.08 µM [inhibitor, partial curve, poor fit]
CN1C(c2ccccc2)=NO[C@]1(C)c1ccccc1 5.01 µM [inhibitor, partial curve]
CN1CCN(C(=O)Nc2ccccc2CC[N+](=O)[O-])CC1 50.1 µM [inhibitor, partial curve, poor fit]
O=C(Nc1c(Cl)ccc2nsnc12)c1ccc([N+](=O)[O-])o1 50.1 µM [inhibitor, partial curve, poor fit]
COc1cc(S(=O)(=O)N2CCOCC2)c(OC)c(S(=O)(=O)N2CCOCC2)c1 35.5 µM [inhibitor, single point]
Cc1cccc(OCCn2c(-c3ccc(Cl)cc3)nc3ccccc3c2=O)c1 44.7 µM [inhibitor, partial curve, poor fit]
C=CCNC(=O)Cn1nc(-c2ccccc2)ccc1=O 44.7 µM [inhibitor, partial curve, poor fit]
CCCc1nn2c(=O)cc(COC(=O)c3cccc(NC(=O)COc4ccccc4C)c3)nc2s1 50.1 µM [inhibitor, partial curve, poor fit]
CCc1cc(-c2cnnn2CCc2c[nH]c3ccccc23)ccc1-c1cn(CC(C)C)nn1 0.282 µM [inhibitor, full curve, poor fit]
COc1cc(OC)c(NC(=O)C2CCCN(c3ncnc4c3nc3n4CCCCC3)C2)cc1Cl (configuration not stated) 39.8 µM [inhibitor, partial curve, poor fit]
C[C@@H]1CN([C@H](C)CO)S(=O)(=O)c2ccc(C#C[C@@H](C)O)cc2O[C@@H]1CN(C)Cc1ccc(-c2ccccc2)cc1 89.1 µM [inhibitor, partial curve, poor fit]
COc1ccc([C@H]2[C@H]3C=CC[C@@H](C)[C@@H]3C(=O)N2Cc2ccccc2)cc1Cl 4.47 µM [inhibitor, full curve, poor fit]
CCOC(=O)c1ccc(Nc2c(-c3ccc(O)c(OC)c3)nc3nc[nH]n23)cc1 44.7 µM [inhibitor, partial curve]
CCOc1cc(/C=C2\CCCC(C(=O)C(F)(F)F)=C2O)ccc1O 39.8 µM [inhibitor, partial curve]
COCCCNC(=O)c1oc2c(c1C)-c1nn(Cc3cccc(Cl)c3)cc1CC2 4.47 µM [inhibitor, single point]
Cc1cccc(NC(=O)c2ccc(C(=O)c3ccccc3)o2)c1 5.62 µM [inhibitor, single point]
O=C1CCCC(O)=C1N=Nc1cccc(C(=O)O)c1 1.12 µM [inhibitor, full curve, poor fit]
O=C(Nc1ccc(S(=O)(=O)N2CCCCC2)cc1)c1ccccc1F 63.1 µM [inhibitor, partial curve, poor fit]
O=C(Nc1nnc(SCC(=O)N2CCCCC2)s1)c1ccccc1F 39.8 µM [inhibitor, single point]
O=C(Nc1nc(-c2ccccc2)cs1)c1ccccc1NS(=O)(=O)c1ccc(F)cc1 35.5 µM [inhibitor, partial curve]
O=C(/C=C/c1ccccc1Cl)Nc1ccc2c(c1)C(=O)NC2=O 35.5 µM [inhibitor, single point]

Four entries drawn at random from those above, as already listed:
Potency, inconclusive:
CCCNC(=O)CN(c1ccc(F)cc1)S(=O)(=O)c1ccc2c(c1)OCCO2 0.447 µM [inhibitor, full curve, poor fit]
O=C(/C=C/c1ccccc1Cl)Nc1ccc2c(c1)C(=O)NC2=O 35.5 µM [inhibitor, single point]
C=CCNC(=O)Cn1nc(-c2ccccc2)ccc1=O 44.7 µM [inhibitor, partial curve, poor fit]
COc1cc(NC(=O)Cn2cnc3c(OCc4ccccc4)ncnc32)cc(OC)c1OC 50.1 µM [inhibitor, partial curve, poor fit]

Reference: PubChem BioAssay AID743255 (National Center for Advancing Translational Sciences (NCATS), 2014)
